Laboratory results taken from patent US12213479B2, “Monoterpenoid/phenylpropanoid-containing compounds and methods of their making and use as herbicides” (KITTRICH CORPORATION, priority 2016, dated 2025).
At least one read-out could not be matched to a standard name with certainty.

System: Palmer Amaranth (Amaranthus palmeri)
Assay: Toxicity assay (probit LC50), Palmer amaranth
Type: in vivo
Source text: Palmer amaranth seeds were obtained from the Department of Agronomy at Iowa State University. Individual seeds were sown for each pot (1.5″ wide×3″ deep) with approximately 7.5 g of soil for each plot. Five seeds/plot were sown into numerous plots. After one month of germination, germinated plants were counted in each plot and this number was used for the total number of plants challenged per plot in the toxicity assessment
The total number of plants were counted in each plot in 24×6 hexagonal small plot planter tray. The number of germinated seeds in each plot was enumerated after one month, and for each plot this number was recorded and used as the total for each plot. Differing concentrations of thymyloxyacetic acid was applied in 5% Triton-X 100 and 1:1 molar ratio potassium hydroxide:thymyloxyacetic acid to aid in the solubility of the compound in water. Ten mL of solution was applied to each plot, and the mortality of the plants was assessed at 3 days and 2 weeks post application (for some treatments). Mortality at these time points were enumerated out of the total plants germinated in each plot at the beginning of the assay. At both time points, the total number of dead plants and total number of plants at the beginning of the assay were recorded for each observation. A Probit model was used to calculate the LC50 values for each of the compounds explored in this assay. […]

Compound: Cc1ccc(C(C)C)c(OCC(=O)O)c1 [thymyloxyacetic acid, 2-(2-isopropyl-5-methylphenoxy)acetic acid]
- LC50 at two weeks compared with three days after application (residual character in soil): LC50 similar to one observed at three days after application
